Reference: patent US20250170252A1, “QUINONE PROTECTED FORMS AND CONJUGATES” (CAMBRIDGE ENTERPRISE LIMITED, priority 2022, published 2025)
Some of these results come from one statement about several compounds together.

What follows are molecules tested against T1, cathepsin B (Homo sapiens, UniProt P07858) (assay: In vitro cleavage of peptide-lapachone prodrugs by cathepsin B). Details: MES 20 mM buffer, pH 5, 37° C.
T1 construct: purchased Abcam ab151914
Assay type: biochemical

Release of β-lapachone after incubation with cathepsin B, compound 1 was observed:
CC1(C)CCC2=C(O1)c1ccccc1C(O)(Cc1ccc(NC(=O)[C@H](CCCNC(N)=O)NC(=O)[C@H](Cc3ccccc3)NC(=O)OCc3ccccc3)cc1)C2=O (stereo partly drawn) [Compound 28, Cbz-Phe-Cit-para-aminobenzyl β-lapa-ketol]
CC(C)[C@H](NC(=O)OCc1ccccc1)C(=O)N[C@@H](C)C(=O)Nc1ccc(CC2(O)C(=O)C3=C(OC(C)(C)CC3)c3ccccc32)cc1 (stereo partly drawn) [Compound 27, Cbz-Val-Ala-para-aminobenzyl β-lapa ketol]
CC(C)[C@H](NC(=O)OCc1ccccc1)C(=O)N[C@@H](CCCNC(N)=O)C(=O)Nc1ccc(CC2(O)C(=O)C3=C(OC(C)(C)CC3)c3ccccc32)cc1 (stereo partly drawn) [Compound 26, Cbz-Val-Cit-para-aminobenzyl β-lapa-ketol]
